# According to publication PMC10743763:
# Sequences of proteins named here, by UniProt entry; tags and fusion partners are left off.
# UniProt P49023: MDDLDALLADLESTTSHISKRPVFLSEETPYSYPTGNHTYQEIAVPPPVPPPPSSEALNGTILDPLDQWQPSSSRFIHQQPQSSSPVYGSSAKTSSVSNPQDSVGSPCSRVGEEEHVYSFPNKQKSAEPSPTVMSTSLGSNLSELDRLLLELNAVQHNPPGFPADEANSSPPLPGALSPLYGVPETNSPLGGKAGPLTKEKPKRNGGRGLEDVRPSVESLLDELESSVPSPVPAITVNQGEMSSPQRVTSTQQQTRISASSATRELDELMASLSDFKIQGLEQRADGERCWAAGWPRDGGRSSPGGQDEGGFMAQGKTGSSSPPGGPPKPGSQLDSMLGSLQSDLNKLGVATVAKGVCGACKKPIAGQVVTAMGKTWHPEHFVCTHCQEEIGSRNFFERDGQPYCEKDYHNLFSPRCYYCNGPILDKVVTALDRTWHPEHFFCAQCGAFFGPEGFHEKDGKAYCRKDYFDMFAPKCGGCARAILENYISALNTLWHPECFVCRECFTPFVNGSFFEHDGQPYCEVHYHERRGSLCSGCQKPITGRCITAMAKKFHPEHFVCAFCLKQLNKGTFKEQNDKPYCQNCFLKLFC
# No constants are given. Whether binding was seen depends on the method and setting. In cells and extracts the contact can be indirect. Some results given as binding are weak or reduced against the parent protein; the word gives no strength.
# Molecular target: T1, oral-facial digital syndrome type 1 (OFD1) (human (endogenous in primary melanocytes)) (UniProt O75665)
# T1 sequence: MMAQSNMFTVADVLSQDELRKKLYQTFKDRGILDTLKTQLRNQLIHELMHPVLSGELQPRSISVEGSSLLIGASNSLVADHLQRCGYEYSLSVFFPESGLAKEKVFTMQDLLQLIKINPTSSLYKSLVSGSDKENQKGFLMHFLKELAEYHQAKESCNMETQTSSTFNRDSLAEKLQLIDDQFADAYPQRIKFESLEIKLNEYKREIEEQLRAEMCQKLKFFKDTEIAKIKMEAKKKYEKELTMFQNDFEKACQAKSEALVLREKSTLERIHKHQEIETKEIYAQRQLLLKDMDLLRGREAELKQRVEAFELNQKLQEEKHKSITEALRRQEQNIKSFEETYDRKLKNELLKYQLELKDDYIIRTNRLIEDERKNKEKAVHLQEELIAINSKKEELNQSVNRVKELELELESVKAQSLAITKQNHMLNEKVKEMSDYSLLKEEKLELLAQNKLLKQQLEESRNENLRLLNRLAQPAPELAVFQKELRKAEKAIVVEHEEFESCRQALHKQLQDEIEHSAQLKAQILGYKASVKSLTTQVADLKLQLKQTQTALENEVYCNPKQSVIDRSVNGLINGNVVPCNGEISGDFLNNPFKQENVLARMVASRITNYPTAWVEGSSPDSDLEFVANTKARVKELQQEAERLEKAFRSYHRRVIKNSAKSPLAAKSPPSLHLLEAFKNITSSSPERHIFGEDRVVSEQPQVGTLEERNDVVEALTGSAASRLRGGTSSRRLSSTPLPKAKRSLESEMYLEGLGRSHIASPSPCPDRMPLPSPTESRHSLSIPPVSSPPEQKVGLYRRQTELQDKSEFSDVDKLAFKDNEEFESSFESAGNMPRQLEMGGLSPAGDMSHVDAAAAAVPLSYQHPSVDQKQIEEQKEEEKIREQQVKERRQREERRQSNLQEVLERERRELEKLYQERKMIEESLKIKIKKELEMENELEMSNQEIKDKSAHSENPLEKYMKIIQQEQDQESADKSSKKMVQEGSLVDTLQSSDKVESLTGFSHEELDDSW
# Assay: co-IP; anti-OFD1 or antipaxillin antibody on resin (Pierce Direct IP kit), 4 °C, lysates of cultured melanocytes with or without OFD1 knockdown; immunoblot with antipaxillin, anti-FAK or anti-OFD1
substance,measurement,value
paxillin (from UniProt P49023 1-591),binding,binds
